No constants are given. Whether binding was seen depends on the method and setting.

This assay has as its target Epiphyas postvittana pheromone binding protein 3 (Epiphyas postvittana). As to the kind of experiment: SEC; size exclusion chromatography in Tris/HCl pH 7.5, 100 mM NaCl, after Ni-NTA affinity chromatography; uncleaved C-terminal His10 tag; both purified.

B1: Epiphyas postvittana pheromone binding protein 3 (protein)
chain: SEEVMKDLTSGFIKVLEECKKELNLSESIINDLYNYWKEDYSLLNRDVGCAIVCMSKKLELIDTSGKIHHGNAEDLAKKHGADSEVAAKLVAILHECEKTHDAIEDQCMKALEIAKCFRTNIHELNWAPKMDVVITEVLTEV
Regarding B1, the binding entry is “no binding”.

These data come from PMC7530677.
